PubChem BioAssay AID1159592 | NIAID – 2016
This is an unselected part of 756 reagents tested. Over the whole deposit, 147 (19%) were called active. 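Active covers both loss and gain of p65 entry; negative z means weaker NF-kB activation, positive means more nuclear p65.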 The numbers tell different reagents against one gene apart. The record does not give: the amount of reagent.

Purpose: 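Which core TLR components make p65 move nuclear in R848-treated mouse macrophages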
Cell system: RAW264.7 macrophages from mouse bearing reporters for p65 (GFP) and the Tnf promoter (mCherry)
Reagent: single siRNA against mouse genes
Timing: 48 to 72 hours after siRNA transfection
Treatment: R848 TLR ligand for 40 minutes before fixation; dose not given
Detection: 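Replicate mean of robust z-score relative to negative-control wells, after median/MAD scaling by plate, for the imaged GFP-p65 nuclear-to-cytoplasmic ratio 40 minutes after R848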
Scale: NF-kB translocation z-score: higher = more p65 moved into the nucleus than in negative-control wells
Hit rule: 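Active when the replicate-mean z lies above 1.5 or below -1.5; the depositor also grades absolute z in steps of 1, 1.5, 2 and 2.5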
Meaning of the calls: active = strong change, either direction; inactive = little change

With knock-down of Tab3 (GeneID 66724) #1, the screen gave NF-kB translocation z-score, replicate mean -0.459; inactive.
With knock-down of Tab3 (GeneID 66724) #2 the results were NF-kB translocation z-score, replicate mean -0.263; inactive.
Knock-down of Tab3 (GeneID 66724) #3 resulted in: NF-kB translocation z-score, replicate mean -1.28; inactive.
Knock-down of Tab3 (GeneID 66724) #4 resulted in: NF-kB translocation z-score, replicate mean 0.364; inactive.
With knock-down of Tab3 (GeneID 66724) #5, the screen gave NF-kB translocation z-score, replicate mean -1.01; inactive.
With knock-down of Tab3 (GeneID 66724) #6, the screen gave NF-kB translocation z-score, replicate mean -0.353; inactive.
For Tlr1 (GeneID 21897) #1 the deposit lists NF-kB translocation z-score, replicate mean 0.172; inactive.
For Tlr1 (GeneID 21897) #2, the entry reads NF-kB translocation z-score, replicate mean -0.582; inactive.
Tlr1 (GeneID 21897) #3 gave NF-kB translocation z-score, replicate mean -0.127; inactive.
Tlr1 (GeneID 21897) #4 showed NF-kB translocation z-score, replicate mean -0.203; inactive.
For Tlr1 (GeneID 21897) #5 the deposit lists NF-kB translocation z-score, replicate mean -0.223; inactive.
After knock-down of Tlr1 (GeneID 21897) #6, the record shows NF-kB translocation z-score, replicate mean -0.481; inactive.

Already shown: entries from further up.
Tlr1 (GeneID 21897) #2 — NF-kB translocation z-score, replicate mean: -0.582; outcome: inactive
Tlr1 (GeneID 21897) #3 — NF-kB translocation z-score, replicate mean: -0.127; outcome: inactive
Tlr1 (GeneID 21897) #4 — NF-kB translocation z-score, replicate mean: -0.203; outcome: inactive
Tlr1 (GeneID 21897) #5 — NF-kB translocation z-score, replicate mean: -0.223; outcome: inactive

The listing continues:
With knock-down of Cyld (GeneID 74256) #1, the screen gave NF-kB translocation z-score, replicate mean -0.243; inactive.
Cyld (GeneID 74256) #2 gave NF-kB translocation z-score, replicate mean 0.28; inactive.
Cyld (GeneID 74256) #3 gave NF-kB translocation z-score, replicate mean 0.825; inactive.
After knock-down of Cyld (GeneID 74256) #4, the screen gave NF-kB translocation z-score, replicate mean -0.887; inactive.
Against Cyld (GeneID 74256) #5, the entry reads NF-kB translocation z-score, replicate mean 1.09; inactive.
Cyld (GeneID 74256) #6 gave NF-kB translocation z-score, replicate mean 0.393; inactive.
Depletion of Mapk13 (GeneID 26415) #1 gave: NF-kB translocation z-score, replicate mean -1.76; active.
After knock-down of Mapk13 (GeneID 26415) #2, the record shows NF-kB translocation z-score, replicate mean -2.44; active.
Against Mapk13 (GeneID 26415) #3, the values are NF-kB translocation z-score, replicate mean 0.319; inactive.
For Mapk13 (GeneID 26415) #4, the values are NF-kB translocation z-score, replicate mean -0.399; inactive.
With knock-down of Mapk13 (GeneID 26415) #5 the results were NF-kB translocation z-score, replicate mean 0.712; inactive.
Against Mapk13 (GeneID 26415) #6, the values are NF-kB translocation z-score, replicate mean -0.939; inactive.
